# These are yes or no findings as the source states them, for the method shown. In cells and extracts the contact can be indirect. A yes stands for co-enrichment or nearness to the bait. Other partners may have been found.
# Protein sequences, listed by entry. Tags and fused reporters are not part of them.
# UniProt P35222: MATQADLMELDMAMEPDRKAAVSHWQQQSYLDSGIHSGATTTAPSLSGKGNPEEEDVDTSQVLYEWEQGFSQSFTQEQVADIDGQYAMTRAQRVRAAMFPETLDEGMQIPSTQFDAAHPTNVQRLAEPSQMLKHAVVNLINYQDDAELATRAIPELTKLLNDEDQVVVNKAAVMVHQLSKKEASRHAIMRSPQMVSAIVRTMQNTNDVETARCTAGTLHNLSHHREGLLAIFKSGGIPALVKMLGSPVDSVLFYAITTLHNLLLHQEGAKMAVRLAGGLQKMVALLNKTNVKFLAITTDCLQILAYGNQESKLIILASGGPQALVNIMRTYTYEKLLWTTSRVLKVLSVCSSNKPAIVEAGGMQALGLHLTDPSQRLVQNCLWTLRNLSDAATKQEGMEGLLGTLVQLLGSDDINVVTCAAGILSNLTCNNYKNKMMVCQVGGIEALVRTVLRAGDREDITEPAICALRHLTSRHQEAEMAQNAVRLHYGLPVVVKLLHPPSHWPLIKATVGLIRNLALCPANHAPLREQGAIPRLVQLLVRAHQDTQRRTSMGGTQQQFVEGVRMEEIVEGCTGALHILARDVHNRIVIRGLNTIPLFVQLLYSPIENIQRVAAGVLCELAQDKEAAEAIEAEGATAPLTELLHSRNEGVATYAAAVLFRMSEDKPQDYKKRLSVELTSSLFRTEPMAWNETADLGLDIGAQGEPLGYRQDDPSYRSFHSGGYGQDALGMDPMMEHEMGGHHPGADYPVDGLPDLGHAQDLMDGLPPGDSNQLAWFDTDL
# Target: T1, DNASE1L3 (deoxyribonuclease γ), overexpressed in Huh7 cells (human) (UniProt Q13609)
# T1 sequence: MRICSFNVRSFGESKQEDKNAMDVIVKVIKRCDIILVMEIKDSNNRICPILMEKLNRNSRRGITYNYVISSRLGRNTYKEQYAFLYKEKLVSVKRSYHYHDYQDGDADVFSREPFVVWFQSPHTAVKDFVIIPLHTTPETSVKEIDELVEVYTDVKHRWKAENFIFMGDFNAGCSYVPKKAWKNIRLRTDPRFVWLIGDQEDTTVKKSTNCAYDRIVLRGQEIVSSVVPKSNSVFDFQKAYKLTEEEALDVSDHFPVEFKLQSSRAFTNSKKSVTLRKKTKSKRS
# Test: affinity purification with mass spectrometry; IP of DNASE1L3 complexes from extract of DNASE1L3-overexpressing Huh7 cells with specific antibody, IgG as control; 5 mg protein, 4 μg antibody, overnight at 4°C; silver staining and mass spectrometry
substance,measurement,value
"β-catenin, in Huh7 cells (from UniProt P35222 1-781)",binding,binds

# Reference: article PMC9436914
